# Experimental data published in US10709744B1, “Probiotic biofilm suppositories” (priority 2019, dated 2020).
# Some entries share one result that the patent states for a list of compounds.
# Assay: pH of MRS solution with acidifying additives
# Type: physicochemical
# Details: additive in MRS solution
smiles,measurement,value
"O=C1O[C@H]([C@@H](O)CO)C(O)=C1O [AA, Ascorbic Acid]",initial pH values in the MRS solution,3.5-4
